Activity change, negative = cytotoxicity data for 93 compounds are collected here from PubChem BioAssay AID504861 (Broad Institute, 2011).

Molecules are shown by their SMILES. Screen size: about 1,200 compounds; about 290 (24%) were called active. About 3% were inconclusive and are not listed.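 Rule for the calls: active = compounds lowering cell viability signal with fitted half-maximal concentration at most ten times their highest tested concentration; inconclusive = flat fit with 30 to 70% signal loss, or poor fit; inactive = the rest.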 The entries are a selection whose mix differs from that of the whole data set. Potency and affinity values are given separately.

The nature of this assay: HEK293T cell viability reduction, dose response, cytotoxicity control for LMP1 NF-kB inhibitor project, CellTiter-Glo luminescence, cherry-picks (AID 504861). To be noted: CellTiter-Glo ATP luminescence, 48 h; at 26 µM (top of the series). Background: ATP-based viability assays read luminescence as a measure of living cells.
As to `O=C(NC1=NCCS1)c1cc2ccccc2o1`, the activity change, negative = cytotoxicity was inactive: -0.619%.
With `CCOc1ccc(N(C(C)C(=O)N2CCCCCC2)S(C)(=O)=O)cc1` (stereo not drawn), the activity change, negative = cytotoxicity was inactive: 3.86%.
Take `O=C(N1CCOCC1)N1CCN(S(=O)(=O)c2ccc(Cl)cc2)C1`: the activity change, negative = cytotoxicity was inactive: 9.71%.
In the case of `COC(=O)[C@@]1(C)[C@H]2C(=O)N(Cc3ccccc3)C(=O)[C@H]2[C@H]2CN=C(SCc3ccc(Cl)cc3)N21` it was inactive: -0.663%; in that of `O=[N+]([O-])c1ccc(Cl)c(S(=O)(=O)NCC2CCCO2)c1` (stereo not drawn), inactive: 6.06%; in that of `O=C(Nc1ccc2c(c1)C(=O)OC2)c1ccc(C(F)(F)F)cc1`, inactive: 0.862%.
In the case of `CCOc1ccc(S(=O)(=O)N2CCC(C(=O)NCCc3ccc(S(N)(=O)=O)cc3)CC2)cc1` it was inactive: 9.59%.
On to `CC1CN(c2cc(=O)n(-c3ccccc3)c(=O)[nH]2)CC(C)O1` (stereo not drawn), for which the activity change, negative = cytotoxicity is inactive: 5.49%.
For the compound `Cc1ccc(CN2C(=O)CCC2C(=O)NCCCN2CCC(C)CC2)cc1` (stereo not drawn), the activity change, negative = cytotoxicity is inactive: 9.36%.
In the case of `CC1(C)CN(Cc2ccccc2)C(=O)[C@H]1CC(=O)Nc1ccccc1` it was inactive: 4.38%; in that of `COc1ccc(S(=O)(=O)N2CCN(CC(=O)Nc3ccc(C)c(F)c3)CC2)cc1`, inactive: 3.08%.
In the case of `O=S(=O)(NC1c2cccc3cccc(c23)C1Sc1ncccn1)c1ccccc1` (stereo not drawn) it was inactive: 7.26%; in that of `COc1ccc(N2Cc3cccc(C(=O)NC(C)CCc4ccco4)c3C2=O)cc1` (stereo not drawn), inactive: 3.59%.
`Cc1cccc(Nc2nc(Cl)ncc2F)c1C`: the activity change, negative = cytotoxicity is inactive: 10.1%.
In the case of `COc1ccc(S(=O)(=O)NCCc2csc(-c3cccnc3)n2)cc1` it was inactive: 1.59%.
In the case of `C=CCN1CCc2cc(O)c(O)cc2C(c2ccccc2)C1` (stereo not drawn), the activity change, negative = cytotoxicity was inactive: 7.91%.
Under `Cn1c(=O)c2c(ncn2CC(=O)Nc2cc(S(=O)(=O)N3CCCCC3)ccc2O)n(C)c1=O` stands inactive: 5.43%.
Under `Cc1ccc(N2C(=O)c3ccccc3C2Nc2cccnc2)nc1` (stereo not drawn) stands inactive: 10.1%; under `COc1ccc(CCNC(=O)CSc2ccsc2[N+](=O)[O-])cc1OC`, inactive: 2.93%; under `O=C(Cn1cc(CNC(=O)C2CCCCC2)nn1)Nc1cc(C(F)(F)F)ccc1Cl`, inactive: 4.05%.
Under `O=C(NCCOc1ccccc1)c1ccc2c(c1)OCO2` stands inactive: -2.16%; under `COc1cc(OC)cc(-c2cc3nc(C)c(CCC(=O)O)c(C)n3n2)c1`, inactive: 4.26%.
Regarding `O=C(CN1C(=O)c2ccccc2C1=O)NNC1=NS(=O)(=O)c2ccccc21`, the activity change, negative = cytotoxicity is inactive: 6.87%.
`CN(Cc1ccc(F)cc1)C(=O)CN1CCN(S(=O)(=O)c2ccc3c(c2)OCCCO3)CC1`: the activity change, negative = cytotoxicity is inactive: 9.73%.
Consider `CC1CC(C)CN(S(=O)(=O)c2ccc(NC(=O)CCN3C(=O)C4CC=CCC4C3=O)cc2)C1` (stereo not drawn), for which the activity change, negative = cytotoxicity was inactive: -5.26%.
Take `COc1ccccc1C(=O)Nc1c[nH]c(=O)[nH]c1=O`: the activity change, negative = cytotoxicity was inactive: 6.18%.
In the case of `CCCSc1nc2cc(S(=O)(=O)N3CCOCC3)ccc2n1CC` it was inactive: 2.27%.
Under `COC(=O)c1cccc(COC(=O)c2ccccc2NC(=O)c2ccco2)c1` stands inactive: 17.6%.
As for `Cc1nn(CCCC(=O)Nc2cccnc2Cl)c(C)c1[N+](=O)[O-]`, the activity change, negative = cytotoxicity was inactive: 1.66%.
In the case of `CC(CNC1CCCCC1)OC(=O)c1ccccc1` (stereo not drawn) it was inactive: 12.2%; in that of `COc1ccc2[nH]c3c(=O)n(CCCCC(=O)N4CCC(C(N)=O)CC4)c(=S)[nH]c3c2c1`, inactive: 10.3%; in that of `O=C(COC(=O)c1ccc(S(=O)(=O)NCc2ccco2)cc1)Nc1ccc(Cl)cn1`, inactive: 7.6%.
In the case of `COc1ccc(NC(=O)C[C@H]2C(=O)N(CCc3ccccc3)C[C@@H]2c2ccc(OC)cc2)cc1` it was inactive: 4.1%; in that of `COCCN1CSC(=S)N(Cc2ccco2)C1`, inactive: 1.64%.
Under `Cc1ccc(C(=O)Nc2cccc(C(F)(F)F)c2)cc1Nc1ncnc2nc[nH]c12` stands inactive: 12.7%; under `CC(CCc1ccco1)N(C)S(=O)(=O)c1csc(C(N)=O)c1` (stereo not drawn), inactive: 3.06%; under `CCCC(C)NC(C)C(=O)NC1CCCC1` (stereo not drawn), inactive: 8.19%.
Consider `COC(=O)C(NS(=O)(=O)c1ccc(N2CCCC2=O)cc1)c1ccccc1` (stereo not drawn), for which the activity change, negative = cytotoxicity is inactive: 11.8%.
Under `COC(=O)c1ccccc1NC(=O)CC(=O)Nc1ccccc1C(=O)OC` stands inactive: 9.44%; under `CCc1nnc(NC(=O)c2ccc(S(=O)(=O)N3CCOCC3)cc2)s1`, inactive: 5.76%; under `Cc1ccc(NC(=O)NNS(=O)(=O)c2ccc(Br)cc2)cc1`, inactive: 13%.
In the case of `CCOC(=O)CCSc1nc(N2CCOCC2)c2c(c1C#N)CC(C)(C)OC2` it was inactive: 9.24%.
Under `C[C@@H]1CN([C@@H](C)CO)C(=O)c2cc(NC(=O)Nc3ccccc3)ccc2O[C@H]1CN(C)C(=O)Nc1cccc2ccccc12` stands inactive: 16.4%; under `CCCCCC(=O)NC(=S)Nc1ccc(Br)cc1C`, inactive: 5.46%.
In the case of `O=C(O)c1ccc(C=NN=C2c3ccccc3-c3ccccc32)cc1`, the activity change, negative = cytotoxicity is inactive: -3.57%.
In the case of `CSCCC(NC(=O)c1ccco1)C(=O)OCC(=O)Nc1ncc(Cl)c(C)c1Cl` (stereo not drawn) it was inactive: 0.613%; in that of `Nc1cc2ccncc2c2ccccc12`, inactive: -17.4%.
As for `O=C(NCc1ccccc1Cl)C1CCCN1S(=O)(=O)c1ccc(F)cc1` (stereo not drawn), the activity change, negative = cytotoxicity was inactive: 3.76%.
In the case of `COc1ccc(S(=O)(=O)N2CCCCCC2)cc1C(=O)OCc1cccc(OC)c1OC` it was inactive: -7.38%; in that of `CSc1ccccc1OCc1cc(C(=O)N2CCC[C@H]2C(N)=O)no1`, inactive: 8.42%; in that of `COc1ccccc1N1CCN(CCCNC(=O)C2CCCN(c3ncnc4c3nc3n4CCCCC3)C2)CC1` (stereo not drawn), inactive: -8.21%.
In the case of `CCOc1cc(C(=O)OC(C)C(=O)Nc2ncc(Cl)cc2Cl)ccc1OCC(=O)N1CCOCC1` (stereo not drawn) it was inactive: 21.9%; in that of `CCSc1nnc(NC(=O)CCn2c(=O)oc3ccccc32)s1`, inactive: 7.93%.
In the case of `COC(=O)c1cc2n(n1)CCN(Cc1ccccc1Cl)C2=O`, the activity change, negative = cytotoxicity was inactive: 20.5%.
Under `CC(C)[C@H](N[C@@H](C)c1ccccc1)c1c(O)ccc2ccccc12` stands inactive: 0.164%.
Under `COC(=O)c1ccccc1NC(=O)CSc1nnnn1C` stands inactive: 7.41%; under `CN(C)CCCC1(c2ccc(F)cc2)OCc2cc(C#N)ccc21` (stereo not drawn), inactive: 6.16%; under `Cc1ccc(C2=C/C(=C\c3cccnc3)C(=O)O2)cc1`, inactive: 6.69%.
In the case of `S=C1SCN(Cc2ccccc2)CN1Cc1ccco1` it was inactive: 4.65%.
Turning to `C/C(=N\Nc1ccc(C(F)(F)F)cc1[N+](=O)[O-])C(C)C`, the activity change, negative = cytotoxicity is inactive: 0.008%.
Under `Nc1nc(N)nc(-c2cc(Cl)ccc2Cl)n1` stands inactive: 1.65%; under `COc1ccc(S(=O)(=O)N2CCOCC2)cc1NC(=O)COC(=O)CCS(=O)(=O)c1ccc(C)cc1`, inactive: 4.64%.
On to `C=CCn1c(C)c(C(C)=O)c(N2CCN(C(c3ccccc3)c3ccccc3)CC2)nc1=S`, for which the activity change, negative = cytotoxicity is inactive: -5.9%.
Regarding `O=C(Nc1cc(S(=O)(=O)N2CCOCC2)ccc1Cl)c1ccncc1`, the activity change, negative = cytotoxicity was inactive: -2.4%.
In the case of `COc1cccc(C2Nc3ccc4ccccc4c3C3=C2C(=O)CC(C)(C)C3)c1OCC(=O)O` (stereo not drawn) it was inactive: 5.8%; in that of `CCON1C(=O)C2(CCCCC2)C(=O)C12C=CCCC2` (stereo not drawn), inactive: 7.76%; in that of `CCOC(=O)C1CCN(S(=O)(=O)Cc2ccccc2)C1=O` (stereo not drawn), inactive: 4.6%.
As to `COc1cc(/C=C2\SC(=S)N(NC(=O)c3ccncc3)C2=O)ccc1O`, the activity change, negative = cytotoxicity is inactive: 2.41%.
In the case of `CCN(C(=O)c1cc(OC)c(OC)c(OC)c1)C1CCCCC1` it was inactive: 11.5%.
Under `CN(C)CCC(c1ccccc1)c1ccccn1` (stereo not drawn) stands inactive: 6.5%.
With `CC(C)NCC(O)COc1cccc2ccccc12` (stereo not drawn), the activity change, negative = cytotoxicity is inactive: 10.2%.
Take `O=C1CCc2cc(OCCCCc3nnnn3C3CCCCC3)ccc2N1`: the activity change, negative = cytotoxicity was inactive: 9.31%.
Under `COC(=O)C1=C(C(=O)c2ccccc2)C(c2ccccc2)n2nnnc2N1` (stereo not drawn) stands inactive: 5.26%; under `CCN(CC(=O)NCc1ccc(F)cc1)CC(=O)Nc1cc(S(=O)(=O)N(C)C)ccc1C`, inactive: 4.11%.
In the case of `CCOC(=O)c1c(-n2cccc2)sc2c1CCCC2=O` it was inactive: 7.85%.
Under `COC(=O)c1sc(NC(=O)c2ccc(OC)cc2OC)nc1C` stands inactive: 1.22%.
Take `Cc1cccc(S(=O)(=O)N2CCCc3ccccc32)c1`: the activity change, negative = cytotoxicity was inactive: 0.425%.
In the case of `COC(=O)c1c(O)ccc(Oc2ccccc2)c1C(=O)OC` it was inactive: 5.13%; in that of `COC(=O)CSc1ncnc2c1sc1nc3c(cc12)COC(C)(C)C3`, inactive: 6.22%.
Under `CC1CCN(CCOc2ccc(C(=O)c3ccccc3)cc2)CC1` stands inactive: -5.16%; under `COC(=O)CCNc1ccc2c(c1)OCCO2`, inactive: -7.17%.
In the case of `O=C(COC(=O)c1cc2ccccc2cc1O)NCc1ccccc1` it was inactive: 4.34%; in that of `COC(=O)c1[nH]c2cccc(C)c2c1NC(=O)CN1CCCc2ccccc21`, inactive: -5.56%.
Take `Cc1ccccc1-n1nc(C)c2cc(C(=O)NC3CC3)sc21`: the activity change, negative = cytotoxicity was inactive: 0.234%.
Under `COc1ccc(/C(CC2OC(=O)c3ccccc32)=N\NC(N)=O)cc1` (stereo not drawn) stands inactive: 1.16%; under `O=c1[nH]c(Nc2nc3ccccc3o2)nc2c1CCCC2`, inactive: 2.83%.
In the case of `COc1ccc(CNC(=O)COC(=O)[C@@H]2CCCN2C(=O)c2cccs2)cc1` it was inactive: -0.031%; in that of `O=C1c2ccccc2C(O)N1Cc1ccccc1` (stereo not drawn), inactive: -0.497%; in that of `CCCCCC(=O)N1CCN(c2ccc(C(C)=O)cc2F)CC1`, inactive: -4.39%.
For `O=C1CCCCC1Sc1nnc(-c2ccc3c(c2)OCO3)o1` (stereo not drawn), the activity change, negative = cytotoxicity was inactive: 6.75%.
In the case of `O=C(CN1C(=O)c2ccccc2S1(=O)=O)Nc1ncc(Cl)cc1Cl` it was inactive: 6.24%.
As for `COc1ccc(NC(=O)COC(=O)/C=C/c2ccc(OC)c(S(=O)(=O)N3CCOCC3)c2)cc1`, the activity change, negative = cytotoxicity is inactive: 27.4%.
Under `CCOc1ccc(NC(=O)CCc2nnc3ccc(N4CCC5(CC4)OCCO5)nn23)cc1` stands inactive: 11.9%.
